In patent US20110123525A1 (THROMBOGENICS N V, published 2011):
Where a chain is given by its changes, count along the chain named. Results are given in words; binding and its absence hold for the method and conditions named. Some entries that bind do so weakly or less than the wild type.

T1: human PlGF-1 (human, UniProt P49763-2 19-149, limits assumed)
T1 construct: also called huPlGF-1; huPlGF
T1 sequence (looked up): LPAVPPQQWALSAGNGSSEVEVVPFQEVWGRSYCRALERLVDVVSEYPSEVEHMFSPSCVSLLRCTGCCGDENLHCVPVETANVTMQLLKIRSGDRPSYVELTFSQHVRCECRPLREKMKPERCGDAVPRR

B1: humanized scFv of 16D3 (scFv)
scFv: QVQLQQSGAELVKPGASVKISCKASGYTFTDYYINWVKLAPGQGLEWIGWIYPGSGNTKYNEKFKGKATLTIDTSSSTAYMQLSSLTSEDTAVYFCVRDSPFFDYWGQGTLLTVSSGGGGSGGGGSGGGGSDIVLTQSPDSLAVSLGERVTMNCKSSQSLLNSGMRKSFLAWYQQKPGQSPKLLIYWASTRESGVPDRFTGSGSGTDFTLTISSVQAEDVAVYYCKQSYHLFTFGSGTKLEIKGSYPYDVPDYAGSHHHHHH
notes: also called humanized scFv16D3; scFvhp16D3mut
B2: scFv of murine antibody 16D3 (scFv)
scFv: B1 scFv with V2I, A9P, A40K, L111T, T136S, D140S, L146A, R149K, N153R, V220L
notes: also called scFv16D3; scFv hp16D3

Columns and labels:
human PlGF-1 [1] = target: T1, human PlGF-1; test: ELISA, huPlGF-1 coated, detected with anti-HA
human PlGF-1 [2] = target: T1, human PlGF-1; test: ELISA, plate coated with 1 µg/ml huPlGF-1, detection with murine anti-HA and goat anti-murine IgG-HRP, OPD
Experimental: ELISA plates were coated ON with 1 μg/ml huPlGF-1 in PBS, 200 μL/well, 4° C. After blocking with 1% BSA, 1 hr, RT, a dilution series of scFv16D3/humanized scFv16D3 was added, 200 μL/well, the antibody fragment was allowed to bind for 1 hr, RT. Bound scFv16D3 was detected with murine anti-HA (180 μL/well, 1 hr RT) followed by incubation with goat-anti-murine IgG-HRP (Sigma), 170 μL/well, 1 hr, RT. The assay was developed with OPD.

Binder	binding (human PlGF-1 [1])	binding (human PlGF-1 [2])
B1	binds	binds
B2	binds	binds
